For 28 compounds, T/C and survivor count results are on record in PubChem BioAssay AID256 (DTP/NCI, 2004).

SMILES strings stand for the structures. The list is a part of this screen's results and no random one: it is rich in T/C values a quarter to a half above the control, in often repeated tests (any T/C) and in doses without a T/C. Other doses and runs of a compound stand elsewhere. T/C is the treated group as % of the vehicle group. Some doses have a count of surviving animals in place of a T/C: the source holds a T/C of zero for them, seemingly a mark for toxic or unscored doses. Some survivor counts are full or nearly so, which does not show that the dose was tolerated: survival well below the control is almost never listed, so the zero probably covers shortened survival too. Counts of survivors are from the toxicity check (mostly the fifth day) where no day follows; animals may have died later. Schedules are NCI's codes, taken here to give the interval after Q, in days (D) or hours (H), and the number of doses after X. Brackets with × say how often a value occurs here. Some doses were run more than once; the results are listed from low to high. For survival time, this PubChem deposit counts one and a half times the control or more as active, and values a quarter to a half above the control carry no call in these data; other NCI protocols may use other cut-offs. Some T/C values are followed by the survivors on the day toxicity was checked, most often the fifth; without a count, all were alive then.

For this assay, the system named is CD2F1 mice, L1210 leukemia ip, survival T/C. Nature of the assay: NCI In Vivo Anticancer Drug Screen. Data for tumor model L1210 Leukemia (intraperitoneal) in CD2F1 (CDF1) mice. To be noted: higher T/C = longer survival. In a few lines:
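Tumor-bearing mice (transplanted tumor) were split into treated and vehicle control groups, and the measured endpoint of each treated group was divided by that of its vehicle controls.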

Where [1] appears, read: T/C endpoint: mean survival time, dose: 200.0 mg/kg/injection, schedule: Q01DX009 (ip), vehicle: saline with Tween-80.
Setting [2] is: T/C endpoint: mean survival time, dose: 400.0 mg/kg/injection, schedule: Q01DX009 (ip), vehicle: saline with Tween-80.
[3] abbreviates: T/C endpoint: mean survival time, dose: 75.0 mg/kg/injection, schedule: Q01DX001 (ip), vehicle: saline.
Where [4] appears, read: T/C endpoint: mean survival time, dose: 150.0 mg/kg/injection, schedule: Q01DX001 (ip), vehicle: saline.
[5] abbreviates: T/C endpoint: mean survival time, dose: 300.0 mg/kg/injection, schedule: Q01DX001 (ip), vehicle: saline.
Setting [6] is: T/C endpoint: mean survival time, dose: 100.0 mg/kg/injection, schedule: Q04DX003 (ip), vehicle: saline with Tween-80.
Setting [7] is: T/C endpoint: mean survival time, dose: 200.0 mg/kg/injection, schedule: Q04DX003 (ip), vehicle: saline with Tween-80.
Setting [8] is: T/C endpoint: mean survival time, dose: 200.0 mg/kg/injection, schedule: Q01DX009 (ip), vehicle: water.
[9] abbreviates: T/C endpoint: mean survival time, dose: 400.0 mg/kg/injection, schedule: Q04DX002 (ip), vehicle: saline with Tween-80.
The mark [10] stands for this setting: T/C endpoint: mean survival time, dose: 400.0 mg/kg/injection, schedule: Q04DX003 (ip), vehicle: saline with Tween-80.
The mark [11] stands for this setting: T/C endpoint: mean survival time, dose: 80.0 mg/kg/injection, schedule: Q01DX001 (ip), vehicle: saline.
The mark [12] stands for this setting: T/C endpoint: mean survival time, dose: 400.0 mg/kg/injection, schedule: Q01DX009 (ip), vehicle: saline sonified.
Where [13] appears, read: T/C endpoint: mean survival time, dose: 400.0 mg/kg/injection, schedule: Q01DX001 (ip), vehicle: saline.

Take `CCc1ccc(Nc2c3ccccc3nc3ccccc23)cc1`: the T/C (T/C endpoint: mean survival time, dose: 100.0 mg/kg/injection, schedule: Q01DX009 (ip), vehicle: saline with Tween-80) was 131 % of control [5 of 6 alive]. Besides, the survivor count was 6 of 6 under setting [1] and 1 of 6 under setting [2].

`CCCCCCCCCC(=O)NCC[N+](C)(C)C`: the survivor count was 3 of 6 under setting [3], 0 of 6 under setting [4] and 0 of 6 under setting [5].

Consider `CC(CCC(C)(C)O)C1CCC2C3C(O)CC4CCCCC4(C)C3CC(O)C12C` (stereo not given), for which the survivor count is 6 of 6 under setting [6] and 6 of 6 under setting [7].

Regarding `COc1ccc(Nc2ccnc3cc(Cl)ccc23)cc1CN(CCCl)CCCl`, the survivor count (T/C endpoint: mean survival time, dose: 12.5 mg/kg/injection, schedule: Q01DX009 (ip), vehicle: saline) is reported as 5 of 6.

For the compound `O=C1Cc2cc3c(cc2C=C2CCCN12)OCO3`, the survivor count under setting [8] is listed as 3 of 6.

For `Cc1c(Cl)ccc(OCC2=NCCN2)c1C`, the survivor count is listed as 1 of 3 (T/C endpoint: mean survival time, dose: 200.0 mg/kg/injection, schedule: Q04DX002 (ip), vehicle: saline with Tween-80) and 0 of 3 under setting [9].

Regarding `COc1cc(/C=C2\C(=O)NC(=O)N(c3ccccc3)C2=O)cc(OC)c1OC`, under setting [10], the survivor count was 0 of 6.

As for `COCCCNc1ccc([N+](=O)[O-])cn1`, the survivor count (T/C endpoint: mean survival time, dose: 400.0 mg/kg/injection, schedule: Q01DX001 (ip), vehicle: carboxymethylcellulose (CMC)) was 2 of 4.

As to `CC(=O)OC1COC(n2nnc(C#N)c2C#N)C(OC(C)=O)C1OC(C)=O` (stereo not given), for the setting “T/C endpoint: mean survival time, dose: 200.0 mg/kg/injection, schedule: Q01DX005 (ip), vehicle: distilled water + Tween-80”, the survivor count is on record as 3 of 6.

Turning to `OCCN1CCN(CC/C=C2\c3ccccc3Sc3ccc(Cl)cc32)CC1`, the T/C (T/C endpoint: mean survival time, dose: 25.0 mg/kg/injection, schedule: Q01DX009 (ip), vehicle: saline) is 138 % of control.

Take `CC(O)CC1CCCC(CC(C)O)N1` (stereo not given): the survivor count by setting is: under setting [3], 0 of 6 and 1 of 6; under setting [11], 1 of 6; under setting [4], 0 of 6 (2×); under setting [5], 0 of 6 (2×).

Turning to `C[N+](C)(CCCCCC[N+](C)(C)Cc1ccccc1)Cc1ccccc1`, the survivor count (T/C endpoint: median survival time, dose: 25.0 mg/kg/injection, schedule: Q04DX003 (ip), vehicle: saline with Tween-80) was 0 of 3; the survivor count (T/C endpoint: median survival time, dose: 50.0 mg/kg/injection, schedule: Q04DX003 (ip), vehicle: saline with Tween-80) is 0 of 3; the survivor count (T/C endpoint: median survival time, dose: 100.0 mg/kg/injection, schedule: Q04DX003 (ip), vehicle: saline with Tween-80) is recorded as 0 of 3; the survivor count (T/C endpoint: median survival time, dose: 200.0 mg/kg/injection, schedule: Q04DX003 (ip), vehicle: saline with Tween-80) is listed as 0 of 3.

In the case of `OC(CBr)C(O)CBr` (stereo not given), the survivor count is, setting by setting: under setting [1], 3 of 6; (T/C endpoint: mean survival time, dose: 200.0 mg/kg/injection, schedule: Q01DX009 (ip), vehicle: saline) 0 of 3; (T/C endpoint: mean survival time, dose: 400.0 mg/kg/injection, schedule: Q01DX001 (ip), vehicle: saline with Tween-80) 0 of 6; under setting [10], 3 of 6.

Turning to `CS(C)=O`, the survivor count (T/C endpoint: mean survival time, dose: 3000.0 mg/kg/injection, schedule: Q01DX009 (ip), vehicle: saline) is 6 of 6 and the survivor count (T/C endpoint: mean survival time, dose: 3.0 grams/kg/injection, schedule: Q01DX009 (ip), vehicle: saline) is 6 of 6.

`N\C([S-])=N/N=C\C(=N/N=C(\N)[S-])C(O)C(O)C(O)CO.[Fe+2]` (stereo not given): the survivor count under setting [12] is 0 of 6.

For the compound `CN(C)/N=C(\CBr)c1ccc(Br)cc1`, the survivor count under setting [13] is listed as 2 of 6.

Take `N#Cc1cccc(CN2CCCNCC2)c1`: under setting [8], the survivor count is on record as 3 of 6.

For the compound `CC(=O)C1C(=O)OC2(C)C(=O)C3=COC(/C=C\C(C)=C/C(C)C)=CC3=CC12` (stereo not given), the survivor count under setting [6] is reported as 6 of 6.

Consider `O=C1C2C(c3ccccc3)=C(c3ccccc3)C1[C@@]1(c3ccccc3)C(c3ccccc3)=CC(=O)[C@@H]21` (stereo not given in full), for which the survivor count (T/C endpoint: mean survival time, dose: 200.0 mg/kg/injection, schedule: Q01DX001 (ip), vehicle: saline with Tween-80) is on record as 6 of 6.

For the compound `COc1cc(Cl)ccc1C`, the survivor count under setting [2] is listed as 5 of 6.

Consider `Cc1cc(C)c(C)c(Br)c1`, for which the survivor count by setting is: (T/C endpoint: mean survival time, dose: 200.0 mg/kg/injection, schedule: Q01DX009 (ip), vehicle: saline sonified) 2 of 6; under setting [7], 1 of 6; under setting [12], 0 of 6.

Turning to `CCOc1ccc(/C=C/c2cc[n+](C)cc2)cc1OC`, the survivor count (T/C endpoint: mean survival time, dose: 200.0 mg/kg/injection, schedule: Q01DX001 (ip), vehicle: saline) was 0 of 6 and the survivor count under setting [13] is reported as 0 of 6.

Regarding `O=C1CCC/C1=C/c1ccco1`, the survivor count is listed as 3 of 3 under setting [1] and 3 of 3 under setting [2].

Turning to `C[n+]1ccccc1C#N`, the survivor count is reported as 3 of 6 (T/C endpoint: mean survival time, dose: 100.0 mg/kg/injection, schedule: Q01DX009 (ip), vehicle: saline sonified); 1 of 6 under setting [7]; 0 of 6 under setting [10].

`O=C(O)c1ccsc1`: where the note is “T/C endpoint: mean survival time, dose: 150.0 mg/kg/injection, schedule: Q04DX003 (ip), vehicle: saline with Tween-80”, the survivor count is 3 of 6.

Regarding `OCC1OC(n2ccc3c(NO)ncnc32)C(O)C1O` (stereo not given), the survivor count is, setting by setting: (T/C endpoint: mean survival time, dose: 20.0 mg/kg/injection, schedule: Q01DX001 (ip), vehicle: saline) 1 of 6; (T/C endpoint: mean survival time, dose: 40.0 mg/kg/injection, schedule: Q01DX001 (ip), vehicle: saline) 0 of 6; under setting [3], 0 of 6; under setting [11], 0 of 6; under setting [4], 0 of 6; under setting [5], 0 of 6.

Take `CCCCCCCCCCCCCCOc1ccc(Cl)cc1`: the survivor count under setting [9] was 3 of 3.

For the compound `O=C1OCCN1NCc1ccc(Cl)cc1`, the survivor count (T/C endpoint: mean survival time, dose: 200.0 mg/kg/injection, schedule: Q01DX009 (ip), vehicle: DMSO) is reported as 2 of 6.
